PubChem BioAssay AID1224826 | NIAID – 2016
Here is one part, drawn at random, of about 17,000 deposited reagents. Of all reagents, about 1,110 (6.6%) are marked active. 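Active means lowered or raised reporter signal; replicate intensities are raw and not normalised per plate.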 The numbers tell different reagents against one gene apart. Not all columns of the deposit are shown.

- Purpose: 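Regulators of Tlr4 signalling leading to Tnf-alpha expression in macrophages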 (primary screen)
- Cell system: RAW264.7 G9 macrophages from mouse bearing reporters for p65 (GFP) and the Tnf promoter (mCherry)
- Reagent: siRNA pool against mouse genes, 100 nM
- Timing: 16 h of LPS stimulation, after 2 days of siRNA transfection
- Treatment: bacterial lipopolysaccharide (Salmonella minnesota R595), 10 ng/ml
- Detection: 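Nuclear mCherry signal of the Tnf promoter reporter measured by imaging after background removal, scaled to each plate median and turned into robust z-scores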
- Scale: Tnf reporter robust z-score: higher = stronger Tnf promoter reporter signal after LPS
- Hit rule: 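a well counts as active at a score of -1.3 or below (Tlr4 knock-down control median) or above 3 (raised signal); controls and wells holding fewer than 50 cells are excluded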
- Meaning of the calls: active = Tnf reporter clearly lowered or raised; inactive = no clear change in Tnf reporter

Gene,reagent no.,Tnf reporter robust z-score,fewer than 50 cells in well,Outcome
"Fam135b (family with sequence similarity 135, member B)",1,1.39,enough cells in well,inactive
"Fam135b (family with sequence similarity 135, member B)",2,-1.29,enough cells in well,inactive
Guca1a (guanylate cyclase activator 1a (retina)),1,-0.06,enough cells in well,inactive
Bcl2a1b (B cell leukemia/lymphoma 2 related protein A1b),1,-0.19,enough cells in well,inactive
Ube4a (ubiquitination factor E4A),1,1.78,enough cells in well,inactive
Adamts1 (ADAM metallopeptidase with thrombospondin type 1 motif 1),1,,fewer than 50 cells per well; well left out of calls,inactive
Grip1 (glutamate receptor interacting protein 1),1,1,enough cells in well,inactive
"Tdo2 (tryptophan 2,3-dioxygenase)",1,-0.12,enough cells in well,inactive
Golga4 (golgin A4),1,-0.03,enough cells in well,inactive
Rce1 (Ras converting CAAX endopeptidase 1),1,0.53,enough cells in well,inactive
Erbb3 (erb-b2 receptor tyrosine kinase 3),1,0.3,enough cells in well,inactive
Pcolce (procollagen C-endopeptidase enhancer protein),1,-1.43,enough cells in well,active
Defb35 (defensin beta 35),1,-0.61,enough cells in well,inactive
Pmfbp1 (polyamine modulated factor 1 binding protein 1),1,,fewer than 50 cells per well; well left out of calls,inactive
Ada (adenosine deaminase),1,,fewer than 50 cells per well; well left out of calls,inactive
Tmem169 (transmembrane protein 169),1,0.82,enough cells in well,inactive
Mzt1 (mitotic spindle organizing protein 1),1,1.52,enough cells in well,inactive
E330018D03Rik (retired record),1,-0.87,enough cells in well,inactive
Rpl27 (ribosomal protein L27),1,-1.27,enough cells in well,inactive
Thap7 (THAP domain containing 7),1,3.77,enough cells in well,active
Pcdha12 (protocadherin alpha 12),1,1.43,enough cells in well,inactive
Or4e2 (olfactory receptor family 4 subfamily E member 2),1,0.32,enough cells in well,inactive
Cdc37 (cell division cycle 37),1,1.13,enough cells in well,inactive
Or6c8 (olfactory receptor family 6 subfamily C member 8),1,-0.34,enough cells in well,inactive
Or6c8 (olfactory receptor family 6 subfamily C member 8),2,,fewer than 50 cells per well; well left out of calls,inactive
